Reference: article PMC4751086
These are yes or no findings as the source states them, for the method shown. Binding seen in cells or lysates may run through a third protein. Some binding calls cover weakened binding; strength is not graded here. Sequences can lack the tags named with a protein.

How the values were obtained:
[1] = target: T1, HD-PTP(1–712;T145K) (human) (UniProt Q9H3S7); experiment: co-IP; HEK293 cells transiently transfected with Flag-tagged HD-PTP(1–712) variants and HA-tagged STAM2 or CHMP4B; lysis in 50 mM Tris-HCl (pH 7.5), 150 mM NaCl, 1% Nonidet P40, 0.5% sodium deoxycholate, 1 mM EDTA; anti-HA agarose or anti-Flag M2 agarose; immunoblotting
T1 sequence: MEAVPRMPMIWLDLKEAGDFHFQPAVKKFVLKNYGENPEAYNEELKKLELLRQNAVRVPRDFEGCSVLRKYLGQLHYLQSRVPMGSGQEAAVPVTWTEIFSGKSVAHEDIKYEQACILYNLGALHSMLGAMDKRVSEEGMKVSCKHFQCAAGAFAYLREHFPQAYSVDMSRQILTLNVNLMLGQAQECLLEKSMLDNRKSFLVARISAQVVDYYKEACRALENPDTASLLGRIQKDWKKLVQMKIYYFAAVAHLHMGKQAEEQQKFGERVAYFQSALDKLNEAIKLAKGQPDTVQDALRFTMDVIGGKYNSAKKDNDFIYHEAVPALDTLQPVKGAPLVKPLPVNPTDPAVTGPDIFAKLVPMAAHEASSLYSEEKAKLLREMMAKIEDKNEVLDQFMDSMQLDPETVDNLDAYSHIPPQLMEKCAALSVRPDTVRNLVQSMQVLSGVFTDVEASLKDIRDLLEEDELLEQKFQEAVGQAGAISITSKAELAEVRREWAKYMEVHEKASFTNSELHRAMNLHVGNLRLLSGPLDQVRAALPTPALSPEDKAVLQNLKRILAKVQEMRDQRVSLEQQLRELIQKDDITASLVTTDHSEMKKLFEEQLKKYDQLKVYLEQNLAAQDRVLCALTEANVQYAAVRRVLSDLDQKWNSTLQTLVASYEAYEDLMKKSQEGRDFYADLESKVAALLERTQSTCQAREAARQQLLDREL

[2] = target: T2, Flag–HD-PTP(1–712) (human) (UniProt Q9H3S7); experiment: as above
T2 sequence: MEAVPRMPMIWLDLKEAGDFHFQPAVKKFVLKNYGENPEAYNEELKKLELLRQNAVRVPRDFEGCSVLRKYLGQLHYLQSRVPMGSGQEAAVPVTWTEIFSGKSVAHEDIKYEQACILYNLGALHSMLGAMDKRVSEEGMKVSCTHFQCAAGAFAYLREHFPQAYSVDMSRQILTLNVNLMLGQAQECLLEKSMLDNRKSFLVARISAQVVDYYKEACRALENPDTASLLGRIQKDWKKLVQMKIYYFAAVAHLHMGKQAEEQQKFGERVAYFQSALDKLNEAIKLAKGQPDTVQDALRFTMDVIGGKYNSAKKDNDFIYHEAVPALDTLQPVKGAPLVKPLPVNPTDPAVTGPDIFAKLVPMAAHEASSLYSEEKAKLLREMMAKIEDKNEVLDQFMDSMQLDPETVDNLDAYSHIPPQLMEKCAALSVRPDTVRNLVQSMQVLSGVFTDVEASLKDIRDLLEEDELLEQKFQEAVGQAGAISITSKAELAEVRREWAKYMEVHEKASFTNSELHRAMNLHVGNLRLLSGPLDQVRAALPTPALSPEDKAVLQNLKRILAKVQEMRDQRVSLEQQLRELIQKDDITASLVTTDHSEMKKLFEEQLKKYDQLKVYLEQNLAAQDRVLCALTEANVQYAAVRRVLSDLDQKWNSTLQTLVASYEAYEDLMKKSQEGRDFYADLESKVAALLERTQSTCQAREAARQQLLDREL

binding [1]: binds | binding [2]: binds
B1: HA–CHMP4B (protein, UniProt Q9H444 1-224)
chain: MSVFGKLFGAGGGKAGKGGPTPQEAIQRLRDTEEMLSKKQEFLEKKIEQELTAAKKHGTKNKRAALQALKRKKRYEKQLAQIDGTLSTIEFQREALENANTNTEVLKNMGYAAKAMKAAHDNMDIDKVDELMQDIADQQELAEEISTAISKPVGFGEEFDEDELMAELEELEQEELDKNLLEISGPETVPLPNVPSIALPSKPAKKKEEEDDDMKELENWAGSM
